The results in this text go back to the supplement of paper PMC11237882.

B1: unnamed (peptide)
chain: LREHLVRFERLRRAMELRRRREIAERERRERERIRI
B2: unnamed (peptide)
chain: NNFFCDRGQLLKLSCNNTLFTEFILFLMAVFILFGS
B3: unnamed (peptide)
chain: LARVMTLAHAMTLEGVMTPAGMMILAGMMTLAGVMT
B4: unnamed (peptide)
chain: PAFYSENNLGAVSLLLLLFGYATFSWMYLLAGLFHE
B5: unnamed (peptide)
chain: DEAPPRLRVLVSGASMVLPRAVAGLAASGLALLLWK
B6: unnamed (peptide)
chain: EDSPGLKVGPVPVLVMSLLFISSVFMLHIWGKYTRL
B7: unnamed (peptide)
chain: MREWWVQVGLLAVPLLAAYLHIPPPQLSPALHSWKS
B8: unnamed (peptide)
chain: QITEMFFEHLGVPAFYMSIQAVLALFAAGFTTGLVL
B9: unnamed (peptide)
chain: MPQALERADGSWAWVVLLATMVTQGLTLGFPTCIGI
B10: unnamed (peptide)
chain: LGHFLSELFVYGPAAPTIGVLAPLMVASFSILGMLV
B11: unnamed (peptide)
chain: LVNFVTEKNIISYPECMTQLYFFLVFAIAECHMLAA
B12: unnamed (peptide)
chain: SSTNNSIQTIDSTQALFLPIGASVSLLVMFFFFDSV
B13: unnamed (peptide)
chain: LREFQVIQDLVVSVLTYPLSHFVGYLLAFTLGIEYL
B14: unnamed (peptide)
chain: PIVAGHIVHSLGFEQLSLGMGLANLLYAPVLLLLRN
B15: unnamed (peptide)
chain: SASCAPLCTPGVDVYWSREDKRFAVVWLAIWAVLCF
B16: unnamed (peptide)
chain: KITAWIYGMGLCALFIVSTVFHIVSWKKSHLRTVEH
B17: unnamed (peptide)
chain: AMETLVCALGLAIGLVGFLVGTVLIIMGTYVSSVPR
B18: unnamed (peptide)
chain: FVATVPVIVAFIMLRAYFLQTSQQLKQLESEGRSPI
B19: unnamed (peptide)
chain: DPLGGSDTAKGYNLLKPMGKVVTYGMANLLSGPKRN
B20: unnamed (peptide)
chain: SILVIGLLTALIGDLASHFGCTVGLKDSVNAVVFVA
B21: unnamed (peptide)
chain: ATTHSAHLVNDFICGGLLGAMLGFLFFPINVVKTRI
B22: unnamed (peptide)
chain: AQKKVKRTLPNPPPEEISTGTQSTFSTMGTVSRRRI
B23: unnamed (peptide)
chain: DFVDGPIHHRALLISVTVCSLLLVLIILFCYFRYKR
B24: unnamed (peptide)
chain: MGQPWAAGSTDGAPAQLPLVLTALWAAAVGLELAYV
B25: unnamed (peptide)
chain: EKVLWTAITLFIFLVCCQIPLFGIMSSDSADPFYWM
B26: unnamed (peptide)
chain: MKTLAGLVLGLVILDAAVTAPTLESINYDSETYDAT
B27: unnamed (peptide)
chain: MDRSLRNVLVVSFGFLLLFTAYGSLQSLQSSLYSEE
B28: unnamed (peptide)
chain: MGNWAVNEGLSIFVILVWLGLNVFLFVWYYRVYNIP
B29: unnamed (peptide)
chain: MAVVPLLLLGGLWSAVGASSLGVVTCGSVVKLLNTR
B30: unnamed (peptide)
chain: DHVLYTVYSTVGAFYFPTLLLIALYGRIYVEARSQS
B31: unnamed (peptide)
chain: TIQNVIKLVDELMEAPGDVETLAPPVRHLIATQLLS
B32: unnamed (peptide)
chain: MDPARKAGAQAMIWTAGWLLLLLLRGGAQALECYSY
B33: unnamed (peptide)
chain: LVFLIPFLHFIIFLFTLRCLEWKFGKKSMRKDPFFR
B34: unnamed (peptide)
chain: LTSLWSLSVAIFSVGGMIGSFSVGLFVNRFGRRNSM
B35: unnamed (peptide)
chain: MGSPRSALSCLLLHLLVLCLQAQEGPGRGPALGREL
B36: unnamed (peptide)
chain: TGIFIGHYAENVSMWIFALTAGLFMYVALVDMVPEM
B37: unnamed (peptide)
chain: SWLLPWYRYKTYYCLSVIIFFFVYIWHWALPLILNN
B38: unnamed (peptide)
chain: AGSGAATGISVSAYELNGLFSVLMLAWIFLPIYIAG
B39: unnamed (peptide)
chain: QNPWWALTGWLGTVVSTLMALLLSQDRSLIASGLYG
B40: unnamed (peptide)
chain: KAIESQFGSSVASYFLFLRWMYGVNMVLFILTFSLI
B41: unnamed (peptide)
chain: MAAPALSWRLPLLILLLPLATSWASAAVNGTSQFTS
B42: unnamed (peptide)
chain: PLPHPGAAPWPMAFPYQYPPPPHPYNPHPGFPELGY

Some of the results follow. Values are worked out from sequencing counts and are noisy.

In this test the target is T1, Homer1 EVH1 domain.
T1 chain: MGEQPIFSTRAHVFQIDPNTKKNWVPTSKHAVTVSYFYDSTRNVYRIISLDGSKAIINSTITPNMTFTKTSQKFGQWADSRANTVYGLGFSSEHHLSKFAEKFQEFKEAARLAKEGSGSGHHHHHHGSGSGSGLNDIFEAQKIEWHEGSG
Put plainly: enrichment score (AUC of log2 frequency ratio across FACS sorting rounds) (log2 AUC); higher = stronger enrichment for Homer1 EVH1 binding.
For the molecule B1, the enrichment score was -1.96.

B2: the enrichment score came out at 3.43. For the molecule B3, the enrichment score is 3.52. Take B4: the enrichment score was found to be 3.77. With B5 the figure was 0.608; with B6, 0.36; with B7, -1.35. As for B8, the figure is 1.53. Regarding B9, the enrichment score was 2.36. As for B10, the figure is 1.75; as for B11, 1.83; as for B12, 2.63. As for B13, the figure is 3. With B14 the figure was 0.869; with B15, 1.8; with B16, 0.813. Turning to B17, the enrichment score is -2.57. B18: the enrichment score was 3.41. As for B19, the figure is -0.288; as for B20, -1.52. As for B21, the figure is 3.61; as for B22, -2.22. As for B23, the figure is 1.06; as for B24, 3.58. Consider B25, for which the enrichment score came out at 2.68. With B26 the figure was 2.42; with B27, -1.97; with B28, 1.83. Turning to B29, the enrichment score turned out to be 1.03.

For the molecule B30, the enrichment score was determined as 1.63. As to B31, the enrichment score came out at 1.86. B32: the enrichment score came to 1.69. As to B33, the enrichment score is -1.35.

Take B34: the enrichment score was -0.996.

Turning to B35, the enrichment score is -1.5. As for B36, the figure is 3.37; as for B37, 0.371; as for B38, 2.09.

As to B39, the enrichment score was found to be 2.36. As for B40, the figure is 2.43; as for B41, 1.26; as for B42, 3.05.
